The other results are listed elsewhere or left out.
compound: C1=CC2=NC=CN=C2C=C1/C=C/3\C(=O)NC(=O)S3; assay: log2 fold change, soluble protein after heating vs DMSO (PISA); higher = thermal stabilisation; K562 cells, 10 uM, 30 min; active = over 0.2 and 3.5 SD of the protein, either way, in both replicates (recomputed)
Procedure, shortened: (§1)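 Aliquots of K562 cells (2×10^6 cells/mL) treated with 10 μM compound for 30 min were heated for 3 min over 48°C-58°C. After pooling and extraction in PBS with 0.5% NP-40 at 4°C, soluble protein from a 21,000xg, 90 min spin was quantified by TMTpro 16plex LC-MS/MS with channel sums equalised. Thermal stability is expressed against control samples, from duplicates, as a log2 fold change.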

Sequences of proteins named here, by UniProt entry; tags and fusion partners are left off. A change or cut given only in a name is not applied to a line headed by its entry.
UniProt P13693: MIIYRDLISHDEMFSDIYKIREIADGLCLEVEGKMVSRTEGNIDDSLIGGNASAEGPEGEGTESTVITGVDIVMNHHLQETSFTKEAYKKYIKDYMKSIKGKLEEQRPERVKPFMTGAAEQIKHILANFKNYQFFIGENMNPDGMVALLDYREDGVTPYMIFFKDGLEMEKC
UniProt Q8NFQ8: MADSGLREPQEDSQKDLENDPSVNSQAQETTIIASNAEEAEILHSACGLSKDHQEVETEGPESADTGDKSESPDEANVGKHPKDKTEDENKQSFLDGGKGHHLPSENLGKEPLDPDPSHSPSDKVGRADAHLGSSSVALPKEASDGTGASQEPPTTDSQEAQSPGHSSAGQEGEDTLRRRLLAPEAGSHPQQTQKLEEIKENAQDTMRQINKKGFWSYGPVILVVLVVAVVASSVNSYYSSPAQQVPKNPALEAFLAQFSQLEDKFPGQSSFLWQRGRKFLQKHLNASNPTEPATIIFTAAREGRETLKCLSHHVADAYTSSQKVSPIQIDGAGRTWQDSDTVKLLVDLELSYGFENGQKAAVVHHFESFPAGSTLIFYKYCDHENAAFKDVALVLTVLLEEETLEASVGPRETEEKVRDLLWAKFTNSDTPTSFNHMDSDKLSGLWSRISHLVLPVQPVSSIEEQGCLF
UniProt Q9NS69: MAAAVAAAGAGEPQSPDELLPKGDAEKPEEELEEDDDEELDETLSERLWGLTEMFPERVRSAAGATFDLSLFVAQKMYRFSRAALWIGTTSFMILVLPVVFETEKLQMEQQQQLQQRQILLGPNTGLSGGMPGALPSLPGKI
UniProt Q8WW01: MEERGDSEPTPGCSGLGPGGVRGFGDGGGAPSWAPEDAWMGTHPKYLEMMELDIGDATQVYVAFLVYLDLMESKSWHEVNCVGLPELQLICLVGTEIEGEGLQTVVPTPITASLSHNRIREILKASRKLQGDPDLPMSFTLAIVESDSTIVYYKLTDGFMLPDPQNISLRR
UniProt Q15643: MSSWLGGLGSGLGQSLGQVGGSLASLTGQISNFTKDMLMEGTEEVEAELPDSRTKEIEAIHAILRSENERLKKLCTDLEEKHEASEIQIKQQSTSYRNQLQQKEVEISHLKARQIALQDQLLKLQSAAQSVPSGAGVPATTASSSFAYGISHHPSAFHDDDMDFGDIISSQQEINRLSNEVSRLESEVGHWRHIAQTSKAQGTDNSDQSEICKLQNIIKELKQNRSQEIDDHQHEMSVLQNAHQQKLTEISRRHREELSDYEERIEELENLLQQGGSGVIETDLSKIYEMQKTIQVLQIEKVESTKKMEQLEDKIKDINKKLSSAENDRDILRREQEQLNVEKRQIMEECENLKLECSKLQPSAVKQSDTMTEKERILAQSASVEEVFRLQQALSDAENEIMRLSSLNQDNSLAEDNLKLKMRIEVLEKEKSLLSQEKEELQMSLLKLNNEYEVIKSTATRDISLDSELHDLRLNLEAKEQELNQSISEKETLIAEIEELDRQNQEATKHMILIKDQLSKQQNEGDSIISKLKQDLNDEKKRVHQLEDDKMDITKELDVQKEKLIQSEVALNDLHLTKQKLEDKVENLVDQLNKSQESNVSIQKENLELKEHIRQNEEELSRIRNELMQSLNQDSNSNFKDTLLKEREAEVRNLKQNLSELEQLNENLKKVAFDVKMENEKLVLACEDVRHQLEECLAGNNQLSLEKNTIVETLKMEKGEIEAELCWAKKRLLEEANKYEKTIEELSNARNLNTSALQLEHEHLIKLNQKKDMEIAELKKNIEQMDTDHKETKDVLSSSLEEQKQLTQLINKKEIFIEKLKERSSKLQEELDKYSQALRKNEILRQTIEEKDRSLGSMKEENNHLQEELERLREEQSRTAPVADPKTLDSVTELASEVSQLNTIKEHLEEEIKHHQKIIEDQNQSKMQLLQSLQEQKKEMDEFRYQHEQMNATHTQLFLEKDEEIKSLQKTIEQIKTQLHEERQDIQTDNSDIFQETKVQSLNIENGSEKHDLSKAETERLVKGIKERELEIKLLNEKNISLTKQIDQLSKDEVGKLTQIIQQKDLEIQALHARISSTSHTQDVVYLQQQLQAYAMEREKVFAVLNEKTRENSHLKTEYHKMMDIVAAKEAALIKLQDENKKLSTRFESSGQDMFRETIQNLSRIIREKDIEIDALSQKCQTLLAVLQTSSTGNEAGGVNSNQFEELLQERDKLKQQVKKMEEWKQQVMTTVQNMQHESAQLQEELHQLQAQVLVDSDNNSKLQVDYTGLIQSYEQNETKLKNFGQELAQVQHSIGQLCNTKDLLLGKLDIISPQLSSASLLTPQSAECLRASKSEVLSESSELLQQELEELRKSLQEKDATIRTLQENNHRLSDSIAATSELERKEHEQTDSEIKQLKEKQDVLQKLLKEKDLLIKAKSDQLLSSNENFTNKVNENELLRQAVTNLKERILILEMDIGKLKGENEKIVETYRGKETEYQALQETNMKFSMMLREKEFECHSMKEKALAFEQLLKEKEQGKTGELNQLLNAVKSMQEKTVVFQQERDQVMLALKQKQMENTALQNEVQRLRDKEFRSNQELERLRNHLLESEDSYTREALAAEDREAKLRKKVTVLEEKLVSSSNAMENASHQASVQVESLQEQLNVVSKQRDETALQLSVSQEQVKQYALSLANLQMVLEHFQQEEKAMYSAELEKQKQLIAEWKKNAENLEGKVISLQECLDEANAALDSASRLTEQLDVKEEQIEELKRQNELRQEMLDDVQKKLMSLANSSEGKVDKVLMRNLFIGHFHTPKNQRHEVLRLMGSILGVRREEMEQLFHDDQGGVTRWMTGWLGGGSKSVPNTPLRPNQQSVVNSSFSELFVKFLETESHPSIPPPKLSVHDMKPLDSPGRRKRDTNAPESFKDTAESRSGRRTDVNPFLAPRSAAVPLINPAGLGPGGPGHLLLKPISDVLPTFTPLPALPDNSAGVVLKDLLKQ
UniProt P29144: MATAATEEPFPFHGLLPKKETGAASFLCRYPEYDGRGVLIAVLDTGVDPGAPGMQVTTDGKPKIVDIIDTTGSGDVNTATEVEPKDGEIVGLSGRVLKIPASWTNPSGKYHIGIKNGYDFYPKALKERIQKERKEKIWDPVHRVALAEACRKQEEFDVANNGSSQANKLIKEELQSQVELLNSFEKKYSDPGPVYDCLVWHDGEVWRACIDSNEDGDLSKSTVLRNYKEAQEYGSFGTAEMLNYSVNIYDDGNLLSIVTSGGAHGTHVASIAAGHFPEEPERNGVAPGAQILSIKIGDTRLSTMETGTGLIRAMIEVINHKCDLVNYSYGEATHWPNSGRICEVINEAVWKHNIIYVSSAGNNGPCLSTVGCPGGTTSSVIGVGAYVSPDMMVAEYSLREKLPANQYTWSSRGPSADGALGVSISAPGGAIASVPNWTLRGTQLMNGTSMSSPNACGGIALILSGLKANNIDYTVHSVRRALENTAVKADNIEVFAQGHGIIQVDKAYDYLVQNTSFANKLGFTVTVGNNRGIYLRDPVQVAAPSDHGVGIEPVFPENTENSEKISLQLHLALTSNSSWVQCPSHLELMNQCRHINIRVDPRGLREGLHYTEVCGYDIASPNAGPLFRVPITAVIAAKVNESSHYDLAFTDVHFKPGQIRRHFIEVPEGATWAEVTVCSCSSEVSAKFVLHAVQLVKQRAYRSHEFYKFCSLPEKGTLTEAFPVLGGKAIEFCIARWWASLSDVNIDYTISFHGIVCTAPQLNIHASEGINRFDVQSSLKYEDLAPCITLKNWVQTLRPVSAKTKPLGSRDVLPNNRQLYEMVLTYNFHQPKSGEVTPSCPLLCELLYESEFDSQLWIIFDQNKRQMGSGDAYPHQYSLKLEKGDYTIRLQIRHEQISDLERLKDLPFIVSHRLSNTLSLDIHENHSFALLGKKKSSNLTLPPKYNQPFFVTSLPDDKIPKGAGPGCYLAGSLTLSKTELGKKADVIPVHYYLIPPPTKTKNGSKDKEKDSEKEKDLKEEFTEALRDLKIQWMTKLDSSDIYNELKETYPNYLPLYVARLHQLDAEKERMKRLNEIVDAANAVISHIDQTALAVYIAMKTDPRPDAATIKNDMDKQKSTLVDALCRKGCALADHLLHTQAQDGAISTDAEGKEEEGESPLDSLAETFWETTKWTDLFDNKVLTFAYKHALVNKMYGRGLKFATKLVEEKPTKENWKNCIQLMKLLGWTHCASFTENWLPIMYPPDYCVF
UniProt Q9BSV6: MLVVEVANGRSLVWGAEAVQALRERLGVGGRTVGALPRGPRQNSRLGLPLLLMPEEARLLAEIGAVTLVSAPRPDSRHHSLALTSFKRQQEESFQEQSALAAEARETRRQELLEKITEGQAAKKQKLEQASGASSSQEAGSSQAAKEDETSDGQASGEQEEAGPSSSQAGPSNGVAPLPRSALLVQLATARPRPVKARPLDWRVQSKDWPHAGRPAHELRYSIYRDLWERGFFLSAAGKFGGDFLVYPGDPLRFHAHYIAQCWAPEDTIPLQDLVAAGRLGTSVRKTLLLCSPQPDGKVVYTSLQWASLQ
UniProt Q96S44: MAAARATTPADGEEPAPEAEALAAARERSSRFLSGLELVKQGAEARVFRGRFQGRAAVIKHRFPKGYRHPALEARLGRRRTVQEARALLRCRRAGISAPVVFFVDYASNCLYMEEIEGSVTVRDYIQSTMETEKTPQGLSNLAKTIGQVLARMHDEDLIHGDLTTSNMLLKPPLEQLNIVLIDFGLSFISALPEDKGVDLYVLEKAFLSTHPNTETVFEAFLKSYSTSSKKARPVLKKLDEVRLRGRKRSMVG
UniProt Q15645: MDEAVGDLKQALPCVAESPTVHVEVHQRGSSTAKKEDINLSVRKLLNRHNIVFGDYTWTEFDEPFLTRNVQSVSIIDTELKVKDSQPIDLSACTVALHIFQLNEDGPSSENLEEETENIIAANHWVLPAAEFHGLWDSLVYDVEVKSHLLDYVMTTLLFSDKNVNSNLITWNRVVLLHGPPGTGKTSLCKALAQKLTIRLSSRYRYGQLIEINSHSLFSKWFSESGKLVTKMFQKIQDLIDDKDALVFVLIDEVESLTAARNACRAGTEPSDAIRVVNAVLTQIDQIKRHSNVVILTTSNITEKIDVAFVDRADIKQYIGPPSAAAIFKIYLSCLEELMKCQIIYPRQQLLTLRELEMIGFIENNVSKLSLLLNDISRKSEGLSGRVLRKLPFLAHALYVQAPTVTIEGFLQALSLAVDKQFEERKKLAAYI
UniProt O75157: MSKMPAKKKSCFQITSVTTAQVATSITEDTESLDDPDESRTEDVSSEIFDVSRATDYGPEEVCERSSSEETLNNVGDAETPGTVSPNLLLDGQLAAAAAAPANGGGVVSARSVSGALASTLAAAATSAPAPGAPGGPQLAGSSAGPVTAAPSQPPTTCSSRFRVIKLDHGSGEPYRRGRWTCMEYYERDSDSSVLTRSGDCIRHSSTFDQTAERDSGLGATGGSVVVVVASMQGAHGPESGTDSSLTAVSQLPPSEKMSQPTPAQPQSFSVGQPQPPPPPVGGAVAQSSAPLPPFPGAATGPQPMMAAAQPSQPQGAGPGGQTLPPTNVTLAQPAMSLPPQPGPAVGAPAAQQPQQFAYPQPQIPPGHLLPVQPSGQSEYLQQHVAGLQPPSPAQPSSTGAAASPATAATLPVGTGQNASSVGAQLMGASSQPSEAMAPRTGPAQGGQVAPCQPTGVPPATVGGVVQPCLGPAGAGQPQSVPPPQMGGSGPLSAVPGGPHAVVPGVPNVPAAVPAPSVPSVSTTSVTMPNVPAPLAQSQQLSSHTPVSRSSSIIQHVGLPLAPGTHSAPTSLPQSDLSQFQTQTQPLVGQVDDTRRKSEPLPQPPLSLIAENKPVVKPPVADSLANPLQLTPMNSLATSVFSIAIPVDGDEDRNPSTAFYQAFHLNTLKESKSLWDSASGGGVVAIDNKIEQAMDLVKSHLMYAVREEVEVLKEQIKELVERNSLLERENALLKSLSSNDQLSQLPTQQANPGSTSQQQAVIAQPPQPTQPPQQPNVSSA
UniProt O94826, whole entry, looked up: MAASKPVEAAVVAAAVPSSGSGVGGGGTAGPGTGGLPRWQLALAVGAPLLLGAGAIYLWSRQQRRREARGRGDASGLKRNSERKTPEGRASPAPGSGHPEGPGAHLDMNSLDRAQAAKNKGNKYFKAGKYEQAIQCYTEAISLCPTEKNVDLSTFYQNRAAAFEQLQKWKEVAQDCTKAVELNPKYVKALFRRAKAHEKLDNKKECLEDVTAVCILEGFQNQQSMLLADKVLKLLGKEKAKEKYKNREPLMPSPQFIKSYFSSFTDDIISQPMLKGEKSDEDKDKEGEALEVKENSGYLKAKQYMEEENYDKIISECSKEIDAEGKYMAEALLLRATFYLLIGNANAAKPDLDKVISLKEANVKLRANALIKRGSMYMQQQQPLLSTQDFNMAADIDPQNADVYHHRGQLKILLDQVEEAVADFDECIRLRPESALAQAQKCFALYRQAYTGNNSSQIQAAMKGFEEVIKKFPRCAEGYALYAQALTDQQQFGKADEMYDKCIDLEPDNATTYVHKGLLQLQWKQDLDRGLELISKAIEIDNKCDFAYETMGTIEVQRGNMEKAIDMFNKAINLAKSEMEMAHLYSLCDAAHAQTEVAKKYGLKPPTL

log2 fold change, inactive:
TPT1 (UniProt P13693) 0.002
TRMT61B (UniProt Q9BVS5) -0.007
TOLLIP (UniProt Q9H0E2) -0.014
TOR1AIP2 (UniProt Q8NFQ8) -0.002
TPM3 isoform 4 (UniProt P06753) -0.067
TOR3A (UniProt Q9H497) 0.026
TOMM22 (UniProt Q9NS69) 0.147
TSC22D4 (UniProt Q9Y3Q8) 0.056
TSEN15 (UniProt Q8WW01) 0.029

compound: C1=CC=C(C=C1)C2=NC(=C(N2)C3=CC=NC=C3)C4=CC(=C(C=C4)Cl)O; assay: as above
Procedure, shortened: as §1

log2 fold change, inactive:
TRIM25 (UniProt Q14258) -0.052
TOMM34 (UniProt Q15785) -0.026
TRIP11 (UniProt Q15643) -0.116
TRIM24 (UniProt O15164) 0.056
TPP2 (UniProt P29144) -0.001
TSEN34 (UniProt Q9BSV6) 0.007
TRIAP1 (UniProt O43715) 0.012
TP53RK (UniProt Q96S44) 0
TRIP13 (UniProt Q15645) 0.043
TRIO (UniProt O75962) -0.247
TSC22D2 (UniProt O75157) -0.114
TRAPPC10 (UniProt P48553) -0.017
TRMT112 (UniProt Q9UI30) -0.091
TOMM70 (UniProt O94826) 0.014

Random excerpt: 2 records from the list
log2 fold change, inactive:
TRIO (UniProt O75962) -0.247
TRIM25 (UniProt Q14258) -0.052

— the supplement of paper PMC10849652
